The test has as its target T1, Flag-MageA11 (human) (UniProt P43364).
T1 sequence: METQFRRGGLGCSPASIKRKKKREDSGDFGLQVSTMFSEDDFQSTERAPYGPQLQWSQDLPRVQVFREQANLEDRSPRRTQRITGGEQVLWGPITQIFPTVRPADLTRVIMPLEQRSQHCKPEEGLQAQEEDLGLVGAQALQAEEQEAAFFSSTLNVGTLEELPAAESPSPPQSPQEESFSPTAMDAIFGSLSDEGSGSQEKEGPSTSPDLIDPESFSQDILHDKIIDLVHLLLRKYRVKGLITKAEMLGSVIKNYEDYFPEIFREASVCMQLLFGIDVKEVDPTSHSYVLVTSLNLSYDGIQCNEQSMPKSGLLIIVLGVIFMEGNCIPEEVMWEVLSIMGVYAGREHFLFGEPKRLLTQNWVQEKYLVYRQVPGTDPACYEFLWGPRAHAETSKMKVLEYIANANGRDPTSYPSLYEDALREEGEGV
The test can be described thus: co-IP; tagged proteins co-expressed in HEK293T cells; lysis buffer 50mM Tris-HCl pH 8.0, 150mM NaCl, 1% NP-40; IP with anti-FLAG M2 antibody and Protein A-Sepharose 3h at 4°C; Western blot with anti-tag antibodies; also seen in cells co-expressing HA-ubiquitin and treated with 10 μM MG132. A general note: Immunoblotting shows a protein as a band on a membrane.

The chains behind the UniProt entries cited, without tags or fusion partners. Where a name states a change or a piece, a line headed by the entry shows the natural chain unless it says otherwise.
UniProt P43360: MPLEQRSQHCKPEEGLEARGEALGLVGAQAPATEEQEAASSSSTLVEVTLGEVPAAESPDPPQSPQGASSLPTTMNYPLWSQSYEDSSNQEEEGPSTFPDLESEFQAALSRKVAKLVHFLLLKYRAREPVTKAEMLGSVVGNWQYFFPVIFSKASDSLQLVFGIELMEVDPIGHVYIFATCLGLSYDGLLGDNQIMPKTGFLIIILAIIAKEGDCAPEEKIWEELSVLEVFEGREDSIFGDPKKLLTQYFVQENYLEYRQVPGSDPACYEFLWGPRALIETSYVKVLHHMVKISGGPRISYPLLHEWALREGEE

These are yes or no findings as the source states them, for the method shown. Binding seen in cells or lysates may run through a third protein. Some binding calls cover weakened binding; strength is not graded here. Sequences can lack the tags named with a protein.

With “GFP-MHD-MageA6 (from UniProt P43360 110-304) (domain or fragment)”, the binding result is given as “binds”. Turning to HA-MageA6 (from UniProt P43360 1-314), the binding result is “binds”.
